No constants are given. Whether binding was seen depends on the method and setting.

This test deals with strep-Hop1 (full length, Hop1-Red1 complex from Hi5 cells) (Saccharomyces cerevisiae) (UniProt P20050). Description: mass photometry.

B1: strep-Hop1 (full length, Hop1-Red1 complex from Hi5 cells) (natural protein, Saccharomyces cerevisiae, UniProt P20050 1-605, looked up)
chain: MSNKQLVKPKTETKTEITTEQSQKLLQTMLTMSFGCLAFLRGLFPDDIFVDQRFVPEKVEKNYNKQNTSQNNSIKIKTLIRGKSAQADLLLDWLEKGVFKSIRLKCLKALSLGIFLEDPTDLLENYIFSFDYDEENNVNINVNLSGNKKGSKNADPENETISLLDSRRMVQQLMRRFIIITQSLEPLPQKKFLTMRLMFNDNVDEDYQPELFKDATFDKRATLKVPTNLDNDAIDVGTLNTKHHKVALSVLSAATSSMEKAGNTNFIRVDPFDLILQQQEENKLEESVPTKPQNFVTSQTTNVLGNLLNSSQASIQPTQFVSNNPVTGICSCECGLEVPKAATVLKTCKSCRKTLHGICYGNFLHSSIEKCFTCIFGPSLDTKWSKFQDLMMIRKVFRFLVRKKKGFPASITELIDSFINVEDQNNEVKERVAFALFVFFLDETLCLDNGGKPSQTIRYVTSSVLVDVKGIVIPNTRKQLNVNHEYKWHFTTSSPKAESFYQEVLPNSRKQVESWLQDITNLRKVYSEALSPSSTLQELDLNSSLPTQDPIISGQKRRRYDLDEYLEEDKSSVVNDTIKAKDFDESVPAKIRKISVSKKTLKSNW
B1: the binding entry is recorded as “no binding (tested: 30 nM)”.

The values above are taken from publication doi:10.1101/2022.04.06.487319 (bioRxiv, 2022).
